# Test results as given in PubChem BioAssay AID493014 (National Center for Advancing Translational Sciences (NCATS), 2011).
# The list shows a part of the results. Shown are side measurements of this screen, not its main read-out; they come without a call. The list favours compounds with an active or inconclusive main result. The note in brackets gives the kind of curve behind each potency; many fits are weak.
# Assay: qHTS Assay to Find Inhibitors of Chronic Active B-Cell Receptor Signaling
# Conditions: ABC-DLBCL IkBa-CBG/CBR reporter, luminescence ratio (green luciferase fused to IkBa over red control in TMD8 lymphoma cells), 4 h
# Method in brief: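 Doxycycline induced both beetle luciferases in TMD8 lymphoma cells; IKK-driven degradation limits the IkappaBalpha-fused green signal, while red luminescence normalises for cell number and nonspecific effects. Compounds tested up to 46 uM, 4 hrs.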
# [1] = measured here: CBR red luminescence, cell number
# [2] = measured here: IkBa-CBG green luminescence
SMILES,AC50 [1],AC50 [2]
CC(C(=O)Nc1sc2c(c1C(=O)NCC1CCCO1)CCC2)N1C(=O)c2ccccc2C1=O (stereo not drawn),"7.31 µM [falling, partial curve]",–
CCOC(=O)c1cc(C#N)c(=S)[nH]c1C,"20 µM [falling, single point]",–
O=C1Nc2ccccc2C12Nc1ccccc1S2 (stereo not drawn),"6.51 µM [rising, partial curve, poor fit]",–
COc1cc(C(=O)Nc2cc(Cl)ccc2C)c(-n2cnnn2)cc1OC,"23.1 µM [rising, partial curve, poor fit]",–
Cc1onc(-c2ccccc2)c1NC(=O)N(CCC#N)Cc1ccccc1,"12.6 µM [falling, partial curve, poor fit]",–
CCc1ccc(-c2cc(C)no2)cc1S(=O)(=O)NCCN1CCC(C)CC1,"3.98 µM [falling, single point]",–
COC(=O)c1cc(Cl)nc2ccccc12,"14.1 µM [rising, single point]",–
COc1ccc(C(=O)Nc2ccc(Cl)c(S(=O)(=O)N3CCOCC3)c2)cc1,"18.4 µM [falling, single point]",–
O=C(Cc1ccc(Br)cc1)c1ccc(O)cc1O,"3.55 µM [rising, full curve, poor fit]",–
COc1ccc(CCNC(=O)Cn2c(=O)cnc3ccccc32)cc1,"25.1 µM [rising, single point]","17.8 µM [falling, partial curve]"
CCOc1ccc(N=c2scc(-c3ccc(OC)cc3)n2CCO)cc1,"3.26 µM [rising, single point]",–
Cc1ccc(O)c(/C=N/NC(=O)COc2ccc3c(C)cc(=O)oc3c2)c1,"12.6 µM [rising, single point]",–
COc1ccc(CCNS(=O)(=O)c2ccc(F)c(C(=O)Nc3ccc(Cl)cc3)c2)cc1OC,"7.08 µM [falling, partial curve]",–
COc1ccc(CCN2C(=O)CN=C2Nc2ccc(F)cc2)cc1OC,"12.6 µM [rising, single point]",–
O=C(CNC(=O)C1COc2ccccc2O1)N/N=C/c1ccc(O)cc1O (stereo not drawn),"23.1 µM [rising, single point]",–
COc1cccc(NC(=O)CSc2nc(=O)n(Cc3ccncc3)c3c2CCCC3)c1,"16.4 µM [falling, partial curve, poor fit]",–
Nn1c(Cc2cccc3ccccc23)nnc1SCc1ccc(Cl)c(Cl)c1,"29.1 µM [falling, single point]",–
O=C(c1cc2sccc2n1Cc1ccccc1)N1CCN(c2nc3ccccc3s2)CC1,"6.31 µM [rising, single point]",–
CCc1c(C(=O)N/N=C/c2ccc(C)o2)csc1C,"20.6 µM [falling, single point]",–
Cn1c(NCCCO)nc2c(c1=O)C1(CCCCC1)Cc1ccccc1-2,"8.91 µM [rising, partial curve]","35.5 µM [falling, partial curve, poor fit]"

# Rewritten bar-delimited: entries from further up.
SMILES | AC50 [1] | AC50 [2]
O=C(Cc1ccc(Br)cc1)c1ccc(O)cc1O | 3.55 µM [rising, full curve, poor fit] | –
COc1ccc(CCNC(=O)Cn2c(=O)cnc3ccccc32)cc1 | 25.1 µM [rising, single point] | 17.8 µM [falling, partial curve]
CCOc1ccc(N=c2scc(-c3ccc(OC)cc3)n2CCO)cc1 | 3.26 µM [rising, single point] | –
Cc1ccc(O)c(/C=N/NC(=O)COc2ccc3c(C)cc(=O)oc3c2)c1 | 12.6 µM [rising, single point] | –
COc1ccc(CCNS(=O)(=O)c2ccc(F)c(C(=O)Nc3ccc(Cl)cc3)c2)cc1OC | 7.08 µM [falling, partial curve] | –
COc1ccc(CCN2C(=O)CN=C2Nc2ccc(F)cc2)cc1OC | 12.6 µM [rising, single point] | –
O=C(CNC(=O)C1COc2ccccc2O1)N/N=C/c1ccc(O)cc1O (stereo not drawn) | 23.1 µM [rising, single point] | –
COc1cccc(NC(=O)CSc2nc(=O)n(Cc3ccncc3)c3c2CCCC3)c1 | 16.4 µM [falling, partial curve, poor fit] | –
Nn1c(Cc2cccc3ccccc23)nnc1SCc1ccc(Cl)c(Cl)c1 | 29.1 µM [falling, single point] | –
O=C(c1cc2sccc2n1Cc1ccccc1)N1CCN(c2nc3ccccc3s2)CC1 | 6.31 µM [rising, single point] | –
CCc1c(C(=O)N/N=C/c2ccc(C)o2)csc1C | 20.6 µM [falling, single point] | –
Cn1c(NCCCO)nc2c(c1=O)C1(CCCCC1)Cc1ccccc1-2 | 8.91 µM [rising, partial curve] | 35.5 µM [falling, partial curve, poor fit]

# Further records:

SMILES,AC50 [1],AC50 [2]
c1ccc(-c2cc(CSc3nc4ccccc4[nH]3)on2)cc1,"25.9 µM [rising, partial curve, poor fit]",–
CCC1(C)N=C(N)Nc2nc3cc(C)c(C)cc3n21 (stereo not drawn),"11.2 µM [rising, single point]",–
c1cc(Nc2cccc3nccnc23)c2nccnc2c1,"6.31 µM [rising, single point]",–
CC1CCCC(C)N1C(=O)COC(=O)c1ccccc1O (stereo not drawn),"14.6 µM [rising, partial curve]",–
CCC(=O)Nc1ccccc1-c1nnn(CC(=O)N2c3ccccc3CC2C)n1 (stereo not drawn),"0.0731 µM [rising, full curve, poor fit]",–
O=C(C1=C[C@H](C2CCCCC2)C[C@H](OCCCCO)O1)N1CCOCC1,"5.62 µM [rising, full curve]",–
O=C(NNC(=O)c1nc(Cl)ccc1Cl)c1ccc(F)cc1,"6.31 µM [falling, single point]",–
Cc1[nH]c2ccccc2c1C(=O)C(=O)N1CCCc2ccccc21,"11.6 µM [rising, partial curve, poor fit]",–
Cc1ccc(S(=O)(=O)CCC(=O)Nc2sccc2C(N)=O)cc1,–,"5.8 µM [falling, partial curve, poor fit]"
CC(=O)CSc1ncnc2sc3c(c12)CCC3,"2 µM [rising, partial curve, poor fit]",–
CCOC(=O)C(C)Oc1ccc(OCc2ccccc2)cc1 (stereo not drawn),"1.58 µM [falling, partial curve, poor fit]",–
COC(=O)c1ccc2c(c1)NC1=C(C(=O)CC(C)(C)C1)C(c1ccncc1)N2 (stereo not drawn),–,"25.9 µM [rising, partial curve, poor fit]"
COCCNC(=O)NC(=O)COC(=O)Cc1ccc2c(c1)OCCO2,"9.2 µM [rising, partial curve, poor fit]",–
O=C(CSc1nc2c(c(=O)[nH]1)CCC2)Nc1ccc(F)cc1,"7.08 µM [falling, partial curve, poor fit]",–
O=C(c1ccco1)N1CCN(c2nc(C(F)(F)F)nc3c2nnn3Cc2ccccc2)CC1,"8.2 µM [rising, partial curve, poor fit]",–
O=C(NCC(c1ccco1)N1CCc2ccccc21)C(=O)Nc1ccc(F)cc1F (stereo not drawn),–,"23.1 µM [falling, single point]"
COc1cc(NC(=O)C/C(C)=N/NC(=O)C(=O)NCCO)c(OC)cc1Cl,"12.6 µM [falling, partial curve, poor fit]",–
COC(=O)C1=C(C)NC(C)=C([N+](=O)[O-])C1c1ccccc1C(F)(F)F (stereo not drawn),"6.51 µM [falling, partial curve, poor fit]","32.6 µM [rising, partial curve, poor fit]"
CCc1c(O)nc(SC2CC(=O)N(c3ccccc3)C2=O)[nH]c1=O (stereo not drawn),"35.5 µM [rising, single point]",–
CN1CCN(C(=O)C2CCC(=O)N(CCc3cccc(F)c3)C2)CC1 (stereo not drawn),"3.16 µM [rising, single point]",–
